Measurements taken from PubChem BioAssay AID504834 (National Center for Advancing Translational Sciences (NCATS), 2011).
Out of some 320,000 compounds screened, about 22,000 (6.9%) were called active. Inconclusive results, whose numbers are uncertain, are shown with a selection of clear calls. Calls come from the whole dose curve; as a rule, active = well fitted inhibition curve with a large enough effect; inconclusive = small, poorly fitted or top-dose-only effect, or another doubt; inactive = no such curve, though single readings can be large or run the other way. Potencies beside an inconclusive call are fits to weak or partial responses and may not hold up.

Assay: Primary qHTS for delayed death inhibitors of the malarial parasite plastid, 96 hour incubation
Details: P. falciparum luciferase reporter growth; series mostly up to 28.7 µM
Outline: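 Readout is luminescence from an integrated firefly luciferase in P. falciparum. Red cells, 2% hematocrit and 0.05% parasitemia final, were cultured with compound through two parasite generations (96 hours) at 37 C, 5% CO2.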
Potency is the fitted concentration of half-maximal effect.

Question: With `CCOCCn1c(SCCc2ccccc2)nc2c1c(=O)[nH]c(=O)n2C` as the compound, how does the Potency read?
Answer: Its Potency is inconclusive: 13.1 µM [inhibitor, partial curve, poor fit].

Question: Which Potency does the source give for `O=C(c1ccc2c(c1)OCO2)n1nnc2ccccc21` here?
Answer: The Potency was “inactive”.

Question: Which Potency does the source give for `COc1ccc(S(=O)(=O)N2CCCOC2CNC(=O)C(=O)NCc2ccccc2F)cc1C` (stereo unspecified) here?
Answer: The Potency was inconclusive: 11.7 µM [inhibitor, partial curve, poor fit].

Question: For `CCCn1c(SCC(=O)NCc2ccccc2)n[nH]c1=O`, which Potency is on record?
Answer: Its Potency is “inactive”.

Question: For `Cc1coc2cc3oc(=O)c(CCC(=O)N4CCC(C(=O)O)(c5ccccc5)CC4)c(C)c3cc12`, which Potency is on record?
Answer: The Potency was inconclusive: 20.8 µM [inhibitor, partial curve, poor fit].

Question: For `CC1CN(C(=O)COC(=O)/C=C/c2ccc(C(F)(F)F)cc2)CC(C)O1` (stereo unspecified), which Potency is on record?
Answer: Its Potency is inconclusive: 18.5 µM [inhibitor, single point].

Question: Which Potency does the source give for `CCCOc1c(Cl)cc(/C=N/O)cc1OCC` here?
Answer: Its Potency is “inactive”.

Question: Which Potency does the source give for `CCCCNC(=O)[C@H](CSCc1ccccc1)N1Cc2ccccc2C1=O` here?
Answer: The Potency was inconclusive: 16.5 µM [inhibitor, single point].

Question: With `CCCCC(=O)NCc1ccc(Cl)cc1` as the compound, how does the Potency read?
Answer: Its Potency is inconclusive: 18.5 µM [inhibitor, single point].

Question: For `O=C(COc1cccc2cccnc12)NNC(=S)Nc1ccccc1`, which Potency is on record?
Answer: The Potency was active: 0.657 µM.

Question: For `O=C(N/C(=C/c1ccco1)C(=O)N1CCOCC1)c1cccs1`, which Potency is on record?
Answer: Its Potency is “inactive”.

Question: For `Cc1[nH]c2ccccc2c1/C=N/NC(=O)c1cccc([N+](=O)[O-])c1`, which Potency is on record?
Answer: The Potency was “inactive”.

Question: Which Potency does the source give for `Cc1c(NC(=O)c2cccs2)cccc1[N+](=O)[O-]` here?
Answer: The Potency was “inactive”.

Question: For `COC(=O)c1ccc(N=CC2=C(O)CC(c3ccccc3)CC2=O)cc1` (stereo unspecified), which Potency is on record?
Answer: Its Potency is “inactive”.

Question: With `O=C(Nc1ccnn1C1CCN(C(=O)c2ccc(F)cc2)CC1)C1CCOC1` (stereo unspecified) as the compound, how does the Potency read?
Answer: Its Potency is “inactive”.

Question: With `COc1cc(Cl)ccc1NC(=O)COc1ccccc1C(=O)NN` as the compound, how does the Potency read?
Answer: The Potency was inconclusive: 11.7 µM [inhibitor, single point].

Question: With `CC(=O)NC(CC(=O)N1CCN(C(C)=O)CC1)c1ccccc1` (stereo unspecified) as the compound, how does the Potency read?
Answer: The Potency was “inactive”.

Question: With `CCOC(=O)c1ccc(/C=C2/C=C(c3ccccc3)N(c3ccc(Cl)c(C(=O)O)c3)C2=O)cc1` as the compound, how does the Potency read?
Answer: Its Potency is active: 13.1 µM.

Question: For `CCc1cccc(NC(=O)c2cccc3c2C(=O)N(C2CCCCC2)C3)c1`, which Potency is on record?
Answer: The Potency was inconclusive: 14.7 µM [inhibitor, single point].

Question: Which Potency does the source give for `O=C(O)C1C2C=CC(C2)C1C(=O)NCc1ccccc1` (stereo unspecified) here?
Answer: The Potency was “inactive”.

Question: With `O=C(COc1ccc(S(=O)(=O)N2CCCC2)cc1Cl)NC1CC1` as the compound, how does the Potency read?
Answer: Its Potency is inconclusive: 5.86 µM [inhibitor, partial curve, poor fit].

Question: With `O=S(=O)(Nc1ccc(N2CCCCC2)cc1)c1ccc(F)cc1` as the compound, how does the Potency read?
Answer: The Potency was inconclusive: 3.7 µM [inhibitor, partial curve, poor fit].

Question: With `CCc1cc2c(NC3CCCC3)ncnc2s1` as the compound, how does the Potency read?
Answer: The Potency was inconclusive: 1.47 µM [inhibitor, partial curve].

Question: Which Potency does the source give for `Cc1ccc(C(=O)N/C(=C\c2ccco2)C(=O)N2CCOCC2)cc1C` here?
Answer: Its Potency is inconclusive: 14.7 µM [inhibitor, partial curve, poor fit].

Question: With `COCC(=O)NC1CCN(S(=O)(=O)c2ccc(C(=O)O)cc2)CC1` as the compound, how does the Potency read?
Answer: Its Potency is inconclusive: 14.7 µM [inhibitor, single point].

Question: With `CCSc1nc(-c2ccccc2)nc(C(Cl)Cl)n1` as the compound, how does the Potency read?
Answer: Its Potency is “inactive”.

Question: With `O=C(N/N=C/c1ccc2ncccc2c1)c1cccc([N+](=O)[O-])c1` as the compound, how does the Potency read?
Answer: The Potency was “inactive”.

Question: With `COc1ccc(NC(=S)Nn2cnnc2)c(OC)c1` as the compound, how does the Potency read?
Answer: Its Potency is inconclusive: 10.4 µM [inhibitor, single point].

Question: Which Potency does the source give for `COCCNC(=O)c1ccc(CS(=O)(=O)c2ccc(OC)cc2)o1` here?
Answer: Its Potency is “inactive”.

Question: Which Potency does the source give for `Cc1nc(SCCOc2ccc(F)cc2)c2ccccc2n1` here?
Answer: Its Potency is “inactive”.

Question: Which Potency does the source give for `COc1ccccc1NC(=O)N1CCCC(CNC(=O)c2ccccc2Cl)C1` (stereo unspecified) here?
Answer: Its Potency is “inactive”.

Question: Which Potency does the source give for `CCOc1cccc2cc(-c3csc(NC(=O)CCC(=O)NCCCN4CCC(C)CC4)n3)c(=O)oc12` here?
Answer: Its Potency is “inactive”.

Question: For `CN(C)CCCN(C(=O)c1ccc(Br)s1)c1nc2cc3c(cc2s1)OCCO3`, which Potency is on record?
Answer: Its Potency is inconclusive: 10.4 µM [inhibitor, single point].

Question: With `Cc1[nH]c2ccccc2c1C(=O)CN1CCC(C)CC1` as the compound, how does the Potency read?
Answer: Its Potency is “inactive”.

Question: Which Potency does the source give for `CCN(CC)C(=O)CSCC(=O)Nc1ccccc1` here?
Answer: The Potency was inconclusive: 4.15 µM [inhibitor, partial curve].

Question: With `Cc1[nH]n2c(=O)cc(Cc3ccccc3)nc2c1C#N` as the compound, how does the Potency read?
Answer: Its Potency is active: 10.4 µM.

Question: For `COCCc1nn2c(=O)cc(COC(=O)c3cc(OC)c(OC)c(OC)c3)nc2s1`, which Potency is on record?
Answer: The Potency was inconclusive: 16.5 µM [inhibitor, single point].

Question: With `CC1=C(C(=O)NCc2ccc3c(c2)OCO3)C2(CCC(C)CC2)OC1=O` (stereo unspecified) as the compound, how does the Potency read?
Answer: Its Potency is inconclusive: 18.5 µM [inhibitor, single point].

Question: Which Potency does the source give for `COc1ccc(-n2c(SCC(=O)Nc3ccc(NC(C)=O)cc3)nc3c([nH]c4ccccc43)c2=O)cc1OC` here?
Answer: Its Potency is “inactive”.

Question: With `Cc1ccnc(SCC(=O)Nc2cc(C)on2)n1` as the compound, how does the Potency read?
Answer: Its Potency is “inactive”.

Question: Which Potency does the source give for `Cc1ccc(S(=O)(=O)N2CCn3cccc3C2C)cc1` (stereo unspecified) here?
Answer: Its Potency is inconclusive: 18.5 µM [inhibitor, single point].

Question: Which Potency does the source give for `COc1ccc(CNc2ccc3c(c2)CCC3)cc1Br` here?
Answer: The Potency was active: 7.38 µM.

Question: Which Potency does the source give for `Cc1ccc(-n2ncc3c(SCc4cccc(C)c4)ncnc32)cc1` here?
Answer: The Potency was inconclusive: 4.65 µM [inhibitor, partial curve].

Question: With `CC1(C(=O)N2CC3(CC(c4cccc(NC(=O)CC(c5ccccc5)c5ccccc5)c4)=NO3)C[C@@H]2C(N)=O)CC1` (stereo partly specified) as the compound, how does the Potency read?
Answer: The Potency was inconclusive: 9.28 µM [inhibitor, partial curve, poor fit].

Question: Which Potency does the source give for `CSCc1nnc2n1-c1ccc(Cl)cc1C(c1ccccc1)=NC2` here?
Answer: The Potency was inconclusive: 14.7 µM [inhibitor, single point].

Question: Which Potency does the source give for `C=C(C)CN=C1NN=C(c2cc(C)n(-c3ccc(C)cc3)c2C)CS1` here?
Answer: The Potency was inconclusive: 11.7 µM [inhibitor, partial curve, poor fit].

Question: Which Potency does the source give for `O=C(CSc1nnc(CNC(=O)c2cccs2)o1)Nc1ccc(Br)cc1` here?
Answer: Its Potency is active: 13.1 µM.

Question: For `COc1cccc(CC(=O)N2CCC(CCC(=O)Nc3cccc(OC)c3)CC2)c1`, which Potency is on record?
Answer: The Potency was inconclusive: 18.5 µM [inhibitor, single point].

Question: For `O=c1c2ccccc2cnn1CCOc1ccccc1`, which Potency is on record?
Answer: Its Potency is “inactive”.

Question: For `C=CCn1c(-c2oc3nc(-c4ccccc4)cc(-c4ccccc4)c3c2N)n[nH]c1=S`, which Potency is on record?
Answer: Its Potency is inconclusive: 18.5 µM [inhibitor, single point].

Question: For `CC(C)N(C(=O)CSc1nnnn1-c1ccc2c(c1)OCO2)C(C)C`, which Potency is on record?
Answer: Its Potency is inconclusive: 18.5 µM [inhibitor, single point].

Question: For `O=C(CSc1nc2cc(Cl)ccc2o1)Nc1ccc(N2CCOCC2)cc1`, which Potency is on record?
Answer: The Potency was inconclusive: 0.0037 µM [inhibitor, full curve, poor fit].

Question: Which Potency does the source give for `CN(Cc1ccccc1NS(=O)(=O)c1ccc(Cl)cc1)C1CCCCC1` here?
Answer: Its Potency is inconclusive: 3.29 µM [inhibitor, partial curve, poor fit].

Question: With `COc1cc(OC)c(OC)cc1/C=C1\Oc2cc(OCC(=O)N3Cc4ccccc4C[C@H]3C(=O)O)ccc2C1=O` as the compound, how does the Potency read?
Answer: The Potency was inconclusive: 14.7 µM [inhibitor, partial curve, poor fit].

Question: For `CSCC[C@H](NC(=O)OC(C)(C)C)C(=O)N/N=C/c1ccc2nccnc2c1`, which Potency is on record?
Answer: The Potency was inconclusive: 16.5 µM [inhibitor, single point].

Question: Which Potency does the source give for `COc1ccc(OC)c(-n2c(O)c(/C=C3\C=Nc4ccccc43)c(=O)[nH]c2=O)c1` here?
Answer: The Potency was “inactive”.

Question: With `O=C(CCc1ccc(S(=O)(=O)N2CCOCC2)cc1)N1CCCC1` as the compound, how does the Potency read?
Answer: Its Potency is inconclusive: 11.7 µM [inhibitor, partial curve].

Question: For `CCC(=O)OCC(=O)[C@@]1(OC(=O)CC)[C@@H](C)C[C@H]2[C@@H]3CCC4=CC(=O)C=C[C@]4(C)[C@@]3(Cl)[C@@H](O)C[C@@]21C`, which Potency is on record?
Answer: The Potency was inconclusive: 11.7 µM [inhibitor, single point].

Question: For `Cc1noc(C)c1COc1ccccc1C(=O)N(C)CC(=O)Nc1ccc(F)cc1`, which Potency is on record?
Answer: Its Potency is “inactive”.

Question: For `CCOc1cc(CN2CCSCC2)ccc1O`, which Potency is on record?
Answer: Its Potency is inconclusive: 11.7 µM [inhibitor, single point].

Question: Which Potency does the source give for `CCCOc1ccc(C(C)=O)cc1CSCCC#N` here?
Answer: Its Potency is inconclusive: 11.7 µM [inhibitor, single point].

Question: With `Cc1ccc(-n2[nH]c(C)c(/C=C3/C=Nc4ccccc43)c2=O)cc1C` as the compound, how does the Potency read?
Answer: Its Potency is “inactive”.

Question: Which Potency does the source give for `COc1ccc(-n2cc(CN[C@H]3CCCCNC3=O)c(-c3cccc(F)c3)n2)cc1` here?
Answer: Its Potency is inconclusive: 10.4 µM [inhibitor, single point].

Question: With `CN1CCN(C(=O)C2=C[C@@H](c3csc4ccccc34)C[C@@H](OCc3ccc(CO)cc3)O2)CC1` as the compound, how does the Potency read?
Answer: Its Potency is inconclusive: 5.86 µM [inhibitor, partial curve, poor fit].

Question: With `O=C(COc1ccc(S(=O)(=O)N2CCOCC2)cc1)N1CCCCCC1` as the compound, how does the Potency read?
Answer: Its Potency is “inactive”.

Question: With `Cc1ccc(C)c(-n2nnnc2SCC(=O)NNC(=O)c2ccco2)c1` as the compound, how does the Potency read?
Answer: Its Potency is inconclusive: 14.7 µM [inhibitor, partial curve].

Question: Which Potency does the source give for `COc1ccccc1CNC(=O)/C=C/c1ccc(Br)o1` here?
Answer: The Potency was inconclusive: 18.5 µM [inhibitor, single point].

Question: For `O=C(Nc1ccc(S(=O)(=O)N2CCOCC2)cc1)c1ccc(Cl)cc1Cl`, which Potency is on record?
Answer: Its Potency is inconclusive: 11.7 µM [inhibitor, single point].

Question: For `COc1ccc(-n2c(COc3cccc(C)c3)nnc2SCC(=O)O)cc1`, which Potency is on record?
Answer: Its Potency is inconclusive: 9.28 µM [inhibitor, partial curve, poor fit].

Question: For `Cc1cc(NC(=O)Cc2ccc(Br)cc2)no1`, which Potency is on record?
Answer: Its Potency is inconclusive: 10.4 µM [inhibitor, single point].

Question: With `CC(=O)c1ccc(OCC(=O)N2CCCC(N3CCN(c4ccccc4C)CC3)C2)cc1` (stereo unspecified) as the compound, how does the Potency read?
Answer: The Potency was inconclusive: 0.928 µM [inhibitor, full curve, poor fit].
